In assay [1] the target is intracellular domain (IcD) of CD95 fused to glutathione S-transferase (GST-CD95-IcD) (UniProt P25445). The assay is described as follows: pull-down; in vitro DISC model: 10 μg purified GST-CD95-IcD on glutathione Sepharose beads with 10 mg caspase-8 null Jurkat cell lysate, 16 h at 23 °C; beads washed in PBS; endogenous lysate proteins blotted; only the target purified.
Assay [2] shares this target. The assay is described as follows: pull-down; lysate-free fully reconstituted DISC (r-DISC): GST-CD95-IcD beads, r-FADD (5 μg) and 35S-labelled recombinant procaspase-8b; beads analysed for FADD; both purified.

By UniProt entry, the sequences of proteins in these tests, tags left out. Where a name states a change or a piece, a line headed by the entry shows the natural chain unless it says otherwise.
UniProt P25445: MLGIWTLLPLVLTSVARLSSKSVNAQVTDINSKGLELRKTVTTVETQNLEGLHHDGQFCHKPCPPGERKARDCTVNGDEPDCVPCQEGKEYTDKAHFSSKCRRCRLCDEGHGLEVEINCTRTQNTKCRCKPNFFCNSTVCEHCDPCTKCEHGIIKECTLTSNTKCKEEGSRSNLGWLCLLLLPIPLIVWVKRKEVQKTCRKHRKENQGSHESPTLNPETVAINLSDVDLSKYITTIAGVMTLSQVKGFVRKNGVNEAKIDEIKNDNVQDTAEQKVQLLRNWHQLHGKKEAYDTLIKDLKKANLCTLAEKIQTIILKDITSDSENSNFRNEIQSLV
UniProt Q13158: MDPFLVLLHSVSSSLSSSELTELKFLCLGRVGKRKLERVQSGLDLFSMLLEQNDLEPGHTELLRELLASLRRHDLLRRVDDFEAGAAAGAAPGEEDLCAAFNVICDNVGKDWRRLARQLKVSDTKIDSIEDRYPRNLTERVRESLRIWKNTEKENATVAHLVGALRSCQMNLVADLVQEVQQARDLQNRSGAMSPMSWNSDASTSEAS

Consider two substances from publication PMC5095593.

No constants are given. Whether binding was seen depends on the method and setting. Binding seen in cells or lysates may run through a third protein. Binding can be weak; no strength is given.

As to “FADD (Fas-Associated protein with Death Domain), endogenous in caspase-8 null Jurkat cells (from UniProt Q13158 1-208)”, the binding entry in assay [1] is recorded as “binds”.
In the case of “recombinant FADD (r-FADD) (from UniProt Q13158 1-208)”, in assay [2], the binding result is “binds”.
